This is one part of the list.

In the experiment the test system is T1, CTL2-GFP (C. trachomatis L2/434/Bu, GFP-expressing).
T1 construct: L2/434/Bu, GFP-expressing
Also noted: species or system HeLa; Intracellular C. trachomatis growth in HeLa cells, bulk GFP fluorescence relative to DMSO. To be noted: bulk GFP, single well; 28.5 h, 10 µM; inhibitor.
On to `COc1cc(/C=N/NC(=O)c2ccc([N+](=O)[O-])cc2)ccc1OC(C)=O` [CBK261348], for which the “% of control remaining” value is recorded as 120.426%.
Turning to `NC(=O)CCN1CCCC2(CCN(C(=O)Cc3c[nH]c4ccccc34)C2)C1` (stereo not shown) [CBK132041], the “% of control remaining” value is 115.703%.
The result for `Cc1cc2c(cc1C)OC1(C=C2)CCN(C(=O)N2CCOCC2)CC1` [CBK285314] reads 115.503%; that for `CC(=O)NCCc1nc2cc(NC(=O)Nc3ccccc3)ccc2n1C` [CBK268216], 109.647%.
For the compound `COC(=O)[C@@H](C)NC(=O)[C@H]1CN(C(=O)c2cccnc2)CCN1C(=O)c1cccs1` [CBK289628], the “% of control remaining” value is listed as 100.37%.
Turning to `CCCCCn1c(=O)c(C(=O)Nc2cccc(O)c2)c(O)c2ccccc21` [CBK291189], the “% of control remaining” value turned out to be 106.839%.
On to `CC(=O)NC(c1nccs1)C1CCN(C(=O)C(C)(C)C)CC1` (stereo not shown) [CBK284677], for which the “% of control remaining” value was 115.04%.
Take `CCOC(=O)c1sc2nc(C(C)N3CCCCC3)[nH]c(=O)c2c1C` (stereo not shown) [CBK306078]: the “% of control remaining” value is listed as 98.0555%.
The result for `OCCNc1nc(Cl)nc(Nc2nc(-c3ccccc3)cs2)n1` [CBK261381] reads 100%.
The result for `N#CCCn1cc(C(=O)N2CCCCC2)c(-c2cccc(Cl)c2)n1` [CBK306209] reads 136.856%; that for `CCN1CCC2(CC1)NC(=O)Cc1ccccc12` [CBK039810], 96.9151%; that for `CC1CCCCN1C(=O)c1ccc(-n2ccnc2)c(-n2cccc2)c1` (stereo not shown) [CBK284832], 104.758%.
As for `O=C(O)C(c1c[nH]c2ccccc12)N1CCN(S(=O)(=O)c2ccccc2)CC1` (stereo not shown) [CBK286643], the “% of control remaining” value is 134.096%.
`O=C(CSc1nc2ccccc2c(=O)n1-c1ccc(F)cc1)Nc1ccc(C(=O)O)cc1` [CBK296140]: the “% of control remaining” value was determined as 143.343%.
As for `O=C(NC(c1ccc(Cl)cc1)c1ccsc1)C1CCN(CCCN2C(=O)CC3CCCCC3C2=O)CC1` (stereo not shown) [CBK147974], the “% of control remaining” value was 147.374%.
The result for `Cc1cc2ccccc2n2c(=O)n(Cc3cscn3)nc12` [CBK282381] reads 111.236%; that for `COc1cc2c(cc1OC)CN(C(=O)c1ccc3[nH]cnc3c1)CC2` [CBK295331], 109.802%.
For `O=S(=O)(c1c(F)cccc1F)N1CCN(Cc2ccc3c(c2)OCO3)CC1` [CBK074600] the value was 102.156%; for `COc1ccc(S(=O)(=O)n2ccn(C(c3ccccc3)c3ccccc3)c2=O)cc1OC` [CBK106621], 105.056%; for `CC(=O)N1CCc2cc(Nc3ncnc4c3cnn4CCC#N)ccc21` [CBK305950], 103.356%.
For `COC(=O)c1cc(Br)c(NC(=O)c2cccs2)cc1OC` [CBK066842] the value was 164.753%.
On to `CNC(=O)C1(Cc2ccccc2-c2cccs2)CCN(C(=O)Cc2ccc(C)cc2)CC1` [CBK285697], for which the “% of control remaining” value was found to be 135.1%.
Regarding `Cc1ccc(C)c(NC(=O)CC2C(=O)N(c3ccccc3)C(=S)N2Cc2ccco2)c1` (stereo not shown) [CBK267119], the “% of control remaining” value was found to be 141.946%.
For the compound `CSc1ncc(C(=O)N2CCN3CCN(C)CC3C2)c(=O)[nH]1` (stereo not shown) [CBK307677], the “% of control remaining” value was found to be 101.613%.
The result for `COc1ccc(C(C)C)cc1-c1nccnc1N1CCCN(C)CC1` [CBK036677] reads 109.679%; that for `Cc1ccc(NC(=O)COc2ccc(/C=C\c3onc(C)c3[N+](=O)[O-])cc2)cc1` [CBK268928], 116.783%.
As for `Cc1ccc2[nH]c(C)c(CC(=O)N(C)CCN(C)C)c2c1` [CBK282674], the “% of control remaining” value was determined as 101.328%.
With `O=C(CN(C1CCCCC1)S(=O)(=O)c1ccc(Br)cc1)NCc1ccccn1` [CBK264846], the “% of control remaining” value is on record as 117.001%.
Regarding `O=S(=O)(Cc1ccccc1Cl)NCCN1CCOCC1` [CBK269171], the “% of control remaining” value was 157.766%.
`O=C(c1cc(F)cc(F)c1)N1CCC(n2cnc3cccnc32)CC1` [CBK283636]: the “% of control remaining” value came to 113.032%.
On to `CS(=O)(=O)Nc1ccc(C(=O)Nc2ccc(S(=O)(=O)N3CCCC3)cc2)cc1` [CBK268592], for which the “% of control remaining” value came out at 113.125%.
`CCC(NC1CCc2nc(COC)nn2C1)C1CCC1` (stereo not shown) [CBK304739]: the “% of control remaining” value is 121.996%.
For `Cc1cccc(C)c1OCc1nnc(SCC(=O)c2ccc(F)cc2)n1C` [CBK269715] the value was 122.962%.
With `Cc1cc(C)nc(SCc2nc3ccc([N+](=O)[O-])cc3[nH]2)n1` [CBK264634], the “% of control remaining” value worked out at 100%.
For `COc1ccc(C2=NN(c3ccc(C(=O)O)cc3)C(c3ccc(OC)c(OC)c3)C2)cc1` (stereo not shown) [CBK296134] the value was 123.973%; for `OCCN1CCN(CC(O)COc2ccc(Cl)cc2Cl)CC1` (stereo not shown) [CBK278198C], 100%.
Take `Cc1ccc(NC(=O)Cn2c(=O)cc(O)c3ccccc32)cc1` [CBK291116]: the “% of control remaining” value is given as 120.74%.
The result for `Cc1cc2c(cc1C)N(C(=O)CSc1nc3ccccc3[nH]1)C(C)(C)CC2C` (stereo not shown) [CBK264144] reads 109.031%; that for `Cc1cc(C)cc(/N=C2\NC(=O)C(CC(=O)O)S2)c1` (stereo not shown) [CBK286878], 125.032%.
As for `FC(F)(F)c1cccc(Oc2nnnn2-c2ccccc2)c1` [CBK002798], the “% of control remaining” value was found to be 108.263%.
With `CN1CCN(c2ccc(NC(=O)c3cc4oc(-c5ccccc5)nc4c(=O)n3C)cc2)CC1` [CBK200425], the “% of control remaining” value was found to be 140.608%.
With `COC(=O)CCc1ccc(S(=O)(=O)N2CCCN(Cc3ccc4c(c3)OCO4)CC2)cc1` [CBK063130], the “% of control remaining” value was 92.2257%.
On to `O=S(=O)(Nc1nnc(C(F)(F)F)s1)c1csc2ccccc12` [CBK062009], for which the “% of control remaining” value was 112.068%.
Regarding `Cc1nn(CCNC(=O)C2CC3C=CC2C32CC2)c(C)c1Cl` (stereo not shown) [CBK281429], the “% of control remaining” value was determined as 120.545%.
Take `O=C(Nc1ccc(N2CCNCC2)nc1)c1cccnc1` [CBK029439T]: the “% of control remaining” value is listed as 109.78%.
For `O=C(Nc1ccc2c(c1)OCO2)c1nccnc1-c1ccc(COc2ccccc2)cc1` [CBK050834] the value was 100.351%; for `COc1cccc(CCN2N=C(C)CC2=O)c1OC` [CBK067766], 118.953%.
As for `Cn1ncc2c(=O)[nH]c(N3CCN(c4cc(C#N)ccn4)CC3)nc21` [CBK304924], the “% of control remaining” value was determined as 127.804%.
The result for `COc1cc(CNc2cncc(-c3cccc(C(=O)NCCO)c3)n2)cc(OC)c1OC` [CBK065421] reads 128.743%.

Source of the values: PMC12040169 (PLOS Biology, 2025).
